# Reference: US20060281767A1, “Triazoloypyrimidines” (BAYER CROPSCIENCE AKTIENGESELLSCHAFT, priority 2003, published 2006)
# Some of these results come from one statement about several compounds together.
# Assays:
# Podosphaera leucotricha = assay: Podosphaera test (apple)/protective; format: in vivo; conditions: protective spray, assessment 10 days after inoculation, 0% = control, 100% = no attack
# Botrytis cinerea = assay: In vitro test to determine ED50 for micro-organisms; format: cell-based; conditions: microtitre plate, potato dextrose medium, 3 to 5 days at 22° C., photometric at 620 nm
SMILES,efficiency (Podosphaera leucotricha) [%],ED50 (50% inhibition of fungal growth) (Botrytis cinerea)
"CC(Oc1c(-c2ncncc2Cl)c(Cl)nc2ncnn12)C(F)(F)F (stereo not shown) [Example 1, 5-chloro-6-(5-chloro-pyrimidin4-yl)-7-(2,2,2-trifluoro-isopropoxy)[1,2,4]triazolo[1,5-a]pyrimidine]",> 90,lower than 10 ppm
CC(C)C(C)Sc1c(-c2ncncc2Cl)c(Cl)nc2ncnn12 (stereo not shown) [Example 2],> 90,lower than 10 ppm
